Experimental data as given in the supplement of paper PMC10735217.
Where a name gives a salt, the structure may show the parent alone. The list shows a part of the results. Single values are uncertain here, since repeats match poorly.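 The human kidney-derived cells carry a stably integrated construct of eight TEAD-binding elements driving luciferase, read by luminescence in a drug-repurposing library screen. A compound counts as a hit when its signal is more than five robust Z scores above the plate mean.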

Test system: HEK293A TEAD-LUC reporter
Assay: TEAD-luciferase reporter activity (YAP activation), robust Z score vs plate; higher = stronger YAP/TEAD activation
Conditions: 24 h

Structure (SMILES) | TEAD-luciferase reporter activity (compound concentration: 200 nM) | TEAD-luciferase reporter activity (compound concentration: 2 uM) | TEAD-luciferase reporter activity (compound concentration: 10 uM)
COc1ccc(C(NC(=O)c2cnc(-c3cccnn3)nc2O)c2ccc(OC)cc2)cc1 | inactive: 0.697 | inactive: -1.14 | inactive: -0.151
C#C[C@]1(O)CCC2C3CCC4=C(CCC(=O)C4)C3CC[C@@]21C (stereo partly specified) | inactive: -0.781 | inactive: -0.687 | inactive: -0.831
Cc1c(C(=O)Nc2ccc(N3C[C@@H](C)O[C@@H](C)C3)nc2)cccc1-c1ccc(OC(F)(F)F)cc1 [Sonidegib phosphate] | inactive: 2.65 | inactive: -0.652 | inactive: 1.99
Cc1ccc2c(Nc3cccc(Cl)c3)nccc2c1NC(=O)c1csc2c(N)ncnc12 | inactive: -1.28 | inactive: -1.08 | inactive: -0.43
Nc1ncnc2c1nc(Cl)n2C1O[C@H](CO)[C@@H](O)[C@H]1O (stereo partly specified) | inactive: -1.56 | inactive: 2.2 | inactive: 1.74
CC1=C(/C=C/C(C)=C/C=C/C(C)=C/C=C/C=C(C)/C=C/C=C(C)/C=C/C2=C(C)C(=O)[C@@H](O)CC2(C)C)C(C)(C)C[C@H](O)C1=O [Astaxanthin] | inactive: -0.297 | inactive: -0.88 | inactive: -0.532
CN(C)CC1=C[CH]([Fe][CH]2C=CC=C2)C=C1CNc1ccnc2cc(Cl)ccc12 (stereo unspecified) [Ferroquine] | inactive: -0.944 | inactive: -0.214 | inactive: -1.17
C[C@@]1(c2cc(-c3cncnc3)c(F)cc2F)CCSC(=N)N1 | inactive: 1.13 | inactive: -0.213 | inactive: -0.872
CN1CCc2cccc3c2C1Cc1ccc(O)c(O)c1-3 (stereo unspecified) [apomorphine, Altea] | – | inactive: -0.97 | –
CN1CCc2cccc3c2C1Cc1ccc(O)c(O)c1-3 (stereo unspecified) [Apomorphine hydrochloride hemihydrate] | inactive: 0.291 | – | inactive: 2.95
O=C(O)C[C@H](O)C[C@H](O)CCn1c(-c2ccc(F)cc2)nc(C(=O)NCc2cccc(F)c2)c1C1CC1 | inactive: -1.37 | inactive: -0.746 | inactive: -1.79
CN(Cc1ccccc1)C(=O)[C@H](Cc1ccc2ccccc2c1)NC(=O)[C@@H]1CCCN1C(=O)Nc1ccccc1[N+](=O)[O-] | inactive: -2.3 | inactive: -2.18 | inactive: 0.118
O=c1ccn([C@H]2O[C@@H](CO)[C@H](O)[C@@H]2F)c(=O)[nH]1 | inactive: -1.37 | inactive: 0.604 | inactive: -0.254
COc1ccc(OC)c(C(O)CNC(=O)CN)c1 (stereo unspecified) [midodrine] | – | inactive: -1.02 | –
COc1ccc(OC)c(C(O)CNC(=O)CN)c1 (stereo unspecified) [Pro-Amatine3092-17-9] | inactive: 1.11 | – | inactive: -2.06
CCCCCCC/C=C/C(=O)NCCSCCC1CCCCC1 | inactive: 1.87 | inactive: -1.04 | inactive: 3.73
CCCS(=O)(=O)N[C@H]1C[C@@H](N(C)c2ncnc3[nH]ccc23)C1 | inactive: 0.0668 | inactive: 0.518 | inactive: 1.17
CC(C)NC(=O)NC1CC2(CCN(C(=O)c3cccc4[nH]ccc34)CC2)Oc2ccccc21 (stereo unspecified) | inactive: -0.529 | – | inactive: -0.884
Nc1nc2c(ncn2COCCO)c(=O)[nH]1 [aciclovir] | inactive: 2.05 | inactive: -1.09 | inactive: -1.11

An excerpt from above, limited to TEAD-luciferase reporter activity (compound concentration: 200 nM) and TEAD-luciferase reporter activity (compound concentration: 2 uM):
Structure (SMILES)	TEAD-luciferase reporter activity (compound concentration: 200 nM)	TEAD-luciferase reporter activity (compound concentration: 2 uM)
O=C(O)C[C@H](O)C[C@H](O)CCn1c(-c2ccc(F)cc2)nc(C(=O)NCc2cccc(F)c2)c1C1CC1	inactive: -1.37	inactive: -0.746
CN(Cc1ccccc1)C(=O)[C@H](Cc1ccc2ccccc2c1)NC(=O)[C@@H]1CCCN1C(=O)Nc1ccccc1[N+](=O)[O-]	inactive: -2.3	inactive: -2.18
O=c1ccn([C@H]2O[C@@H](CO)[C@H](O)[C@@H]2F)c(=O)[nH]1	inactive: -1.37	inactive: 0.604
COc1ccc(OC)c(C(O)CNC(=O)CN)c1 (stereo unspecified) [midodrine]	–	inactive: -1.02

Next records:

Structure (SMILES) | TEAD-luciferase reporter activity (compound concentration: 200 nM) | TEAD-luciferase reporter activity (compound concentration: 2 uM) | TEAD-luciferase reporter activity (compound concentration: 10 uM)
CCCCCCC(C)NN (stereo unspecified) | inactive: 0.172 | inactive: 1.34 | inactive: 0.937
CCc1nnc(NS(=O)(=O)c2ccc(N)cc2)s1 | inactive: 0.429 | inactive: 0.14 | inactive: 1.72
C[C@H](NC(=O)/C(C#N)=C/c1cccc(Br)n1)c1ccccc1 | inactive: -1.27 | inactive: -0.569 | inactive: 0.758
COc1cccc2c1C(=O)C(C(=O)N(C)c1ccc(C(F)(F)F)cc1)C(=O)N2C (stereo unspecified) [tasquinimod] | inactive: -1.69 | inactive: -1.45 | inactive: -0.111
[O-][n+]1cccc(-c2nc3c(Cl)cccc3cc2[C@@H](Nc2ncnc3cccnc23)C(F)(F)F)c1 | inactive: -0.983 | inactive: -1.26 | inactive: -0.649
CC(C)(C)C(=O)OCOP(=O)(COCCn1cnc2c(N)ncnc21)OCOC(=O)C(C)(C)C [adefovir dipivoxil] | inactive: -3.61 | inactive: -1.62 | inactive: -1.28
NC(=O)c1c(OCc2c(F)cc(Br)cc2F)nsc1NC(=O)NCCCCN1CCCC1 | inactive: -0.431 | inactive: -2.59 | inactive: -0.455
O=C(O)c1cc2cc(Cc3cccnc3)ccc2o1 [Furegrelate sodium] | inactive: 2.24 | inactive: 0.105 | inactive: 2.78
CCCCCCCC/C=C\CCCCCCCC(=O)O [Oleic Acid] | inactive: -1.17 | inactive: 0.617 | inactive: -0.943
CC12CCC(C1)C(C)(C)C2O (stereo unspecified) | inactive: -0.51 | inactive: -0.563 | inactive: -1.09
CC(=O)OCCC(C)CCC=C(C)C (stereo unspecified) | inactive: -0.0414 | inactive: -0.923 | inactive: -0.752
O=c1oc2cc(O)ccc2s1 | inactive: 0.699 | inactive: 0.0648 | inactive: 1.07
S=C=Nc1ccc(N=C=S)cc1 | inactive: -1.1 | inactive: -0.728 | inactive: -1.63
CCN(CCO)c1nc(-c2ccccc2)c(-c2ccccc2)o1 | inactive: -0.998 | inactive: -0.554 | inactive: 0.282
O=C(c1ccccc1)N1CC2COCC2C1 (stereo unspecified) | inactive: -0.987 | inactive: 0.0459 | inactive: -0.612
O=[N+]([O-])c1ccc(Nc2ccc(N=C=S)cc2)cc1 [amoscanate] | inactive: 0.31 | inactive: -0.444 | inactive: 1.85
C[C@]12CC[C@@H]3c4ccc(O)cc4CC[C@H]3[C@@H]1[C@@H](O)[C@@H](O)[C@@H]2O [Estetrol] | inactive: -0.933 | inactive: 1.19 | inactive: -0.0922
COc1ccc(S(=O)(=O)N2CCN(C(C)c3nc(OC4CCCCC4)c4ccccc4n3)CC2)cc1 (stereo unspecified) | inactive: -0.993 | inactive: -1.04 | inactive: -0.541
O=C(O)c1cc(-c2ccc(Nc3nc4ccc(F)cc4s3)cc2)no1 | inactive: -1.45 | inactive: 0.771 | inactive: 0.159

Structure (SMILES) | TEAD-luciferase reporter activity (compound concentration: 200 nM) | TEAD-luciferase reporter activity (compound concentration: 2 uM) | TEAD-luciferase reporter activity (compound concentration: 10 uM)
CCOC(=O)C(=O)Nc1ccc2oc(=O)cc(C)c2c1 | inactive: 0.597 | inactive: -0.286 | inactive: 2.59
N#CC(c1ccnc(OCc2ccc(CN3CCOCC3)cc2)n1)c1nc2ccccc2s1 (stereo unspecified) [Bentamapimod] | inactive: -0.0317 | inactive: -1.36 | inactive: -1.3
Nc1cc(N2CCN(CCP(=O)(O)O)CC2)nc(NC[C@H]2CC[C@H](CNCCCNC3CCCCC3)CC2)n1 [Burixafor] | inactive: -1.59 | inactive: 0.281 | inactive: 0.118
COc1ccccc1-c1csc(Cc2cn3ccccc3n2)n1 | inactive: -1.71 | inactive: -1.29 | inactive: 4.47
COc1cc(C)ccc1OCC(=O)NC1(C(=O)O)Cc2ccccc2C1 | inactive: 1.33 | inactive: -0.593 | inactive: -2.41
O=C([O-])C1O[C@@H](OC2[C@H](O)C(NS(=O)(=O)[O-])C(O)O[C@@H]2COS(=O)(=O)[O-])C(OS(=O)(=O)[O-])[C@@H](O)C1O (stereo partly specified) | inactive: -0.508 | inactive: 0.00717 | inactive: 0.243
CCCC(=O)OCOC(=O)C(C)(C)C | inactive: -1.57 | inactive: -1.46 | inactive: 0.217
COc1ccc(-n2nnnc2C(F)(F)F)cc1CN[C@@H]1CCCN[C@@H]1c1ccccc1 | inactive: -1.06 | inactive: 1.53 | inactive: -0.0927
Fc1ccc(OC[C@@H]2CNCCO2)c2c1CCC2 | inactive: 3.37 | inactive: 3.53 | inactive: -0.146
CC(C)NCC(O)CC(c1ccccc1)c1ccccc1 (stereo unspecified) | inactive: 0.1 | inactive: -1.65 | inactive: -1.03
O=C1N[C@@H]2[C@@H](O)[C@@H](O)[C@H](O)[C@@H](CO)N2C1=O [kifunensine] | inactive: -0.413 | inactive: -0.735 | inactive: -1.24
CCCCn1c(=O)c2ncn(C)c2c2ccccc21 | inactive: -0.196 | inactive: -0.342 | inactive: 1.88
COC(=O)[C@H](CC(C)C)NC(=O)N1CCN(Cc2[nH]cnc2C)C(=O)[C@@H]1Cc1ccccc1 | inactive: -0.277 | inactive: -2.04 | inactive: -1.7
NC(=O)c1cn(Cc2c(F)cccc2F)nn1 [rufinamide (oral suspension)] | inactive: -0.361 | inactive: 2.19 | inactive: 2.75
CC(C)(O)CC[C@@H](O)[C@](C)(O)[C@H]1CC[C@@]2(O)C3=CC(=O)[C@@H]4C[C@@H](O)[C@@H](O)C[C@]4(C)[C@H]3CC[C@]12C | inactive: -0.841 | inactive: 1.85 | inactive: -0.106
O=c1c(-c2ccc(O)cc2)coc2cc(O)ccc12 [Daidzein] | inactive: 0.0957 | – | inactive: -0.441
O=c1c(-c2ccc(O)cc2)coc2cc(O)ccc12 [4',7-Dihydroxyisoflava] | – | inactive: 0.634 | –
Nc1c(Cl)cc(C(=O)NC[C@@H]2CCCN2)c2c1CCO2 | inactive: 3.27 | inactive: -1.52 | inactive: 0.297
CC(C)n1c(=O)n(C(=O)NCC2CCN(CC3(C(=O)O)CCC3)CC2)c2ccccc21 | inactive: 0.166 | inactive: -0.198 | inactive: 1.19
